The text below walks through data of publication PMC7862700.

The chains behind the UniProt entries cited, without tags or fusion partners. Where a name states a change or a piece, a line headed by the entry shows the natural chain unless it says otherwise.
UniProt Q00613: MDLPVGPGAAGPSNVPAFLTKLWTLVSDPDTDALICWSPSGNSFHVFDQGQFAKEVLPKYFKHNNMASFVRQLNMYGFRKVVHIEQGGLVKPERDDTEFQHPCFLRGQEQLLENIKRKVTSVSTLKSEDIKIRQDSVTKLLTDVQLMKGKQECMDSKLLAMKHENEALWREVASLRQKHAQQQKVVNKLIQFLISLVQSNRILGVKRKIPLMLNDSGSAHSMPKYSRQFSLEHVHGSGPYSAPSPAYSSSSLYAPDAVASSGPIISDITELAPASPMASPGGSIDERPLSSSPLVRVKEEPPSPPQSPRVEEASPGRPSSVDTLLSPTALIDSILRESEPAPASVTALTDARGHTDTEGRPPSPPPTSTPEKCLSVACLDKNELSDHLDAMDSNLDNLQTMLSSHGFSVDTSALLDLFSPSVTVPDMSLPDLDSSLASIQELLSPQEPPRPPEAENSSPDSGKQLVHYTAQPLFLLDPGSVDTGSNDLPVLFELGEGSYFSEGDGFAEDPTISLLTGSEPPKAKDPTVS

This is a selection; strong and weak results do not stand in their true shares. For some of these results: At the low end of the ranking, values are background and their order means little. The list shows a part of the results. For some of these results: The source does not settle which construct or isoform was used.

The first test has as its target HSF1 (UniProt Q00613). As to the kind of experiment: DAPPL (digital affinity profiling via proximity ligation, sequencing). The following applies: 10 mM Tris-HCl pH 7.5, 50 mM NaCl, 1 mM DTT, 4% glycerol, room temperature, 30 min; GST-TFs on glutathione beads, 16-mer random dsDNA library, 0.1% …; high values mean tight binding; double strand, one strand shown; scale: fold enrichment (6-mer frequency, TF over GST control).
In turn, GCATCG registered a binding signal of 0.718.
Same read-out and setting: next, AGTGGG: 0.461; TACCAG: 1.22; CGTTAG: 0.75.
CGTGAA showed a binding signal of 0.546.
The same measure, in the same setting: next, GCATGC: 0.816.
On the same count and under the same terms, as for CAGGCA, the figure is 0.589; as for TGAGTT, 0.352.
On the same count and under the same terms, next, TGTCGA: 0.908; GGACGC: 0.299.
Sequence CAAGTG showed a binding signal of 0.655.
Still for that read-out and setting: as for ACGTCG, the figure is 0.551; as for GAATCG, 0.688; as for AGTAGG, 0.567.
On the same count and under the same terms, as for TCAGGC, the figure is 0.693; as for GGAGTA, 0.32.
On the same count and under the same terms, next, GGTGTG: 0.547.
In turn, AGGTTG came in with a binding signal of 0.642.
The same measure, in the same setting: as for GAGGCG, the figure is 0.328.
Still for that read-out and setting: next, AGAGGC: 0.648.
On the same count and under the same terms, next, CAGACC: 0.673; AGACTA: 1.06.
Sequence GACAAT returned a binding signal of 0.834.
CCAGTT yielded a binding signal of 0.603.
Turning to CAGGGT, the binding signal came out at 0.739.
Same read-out and setting: as for GTGCGT, the figure is 0.49.
Still for that read-out and setting: as for GAGGAC, the figure is 0.5.
On the same count and under the same terms, next, TCGCCA: 0.916; CGGTCG: 0.311.
GGGACA gave a binding signal of 0.516.
With AGGGAC, the binding signal worked out at 0.604.
Consider GCGGAG, for which the binding signal came out at 0.239.
For the sequence GCAGAG, the binding signal turned out to be 0.551.
Still for that read-out and setting: as for AGCGCA, the figure is 0.818; as for GGTTGA, 0.618.
Still for that read-out and setting: as for TGAGGA, the figure is 0.591; as for TATCGG, 0.905.
On the same count and under the same terms, as for AGTCGG, the figure is 0.136.

A further test addresses T1, ELF2 (UniProt Q15723).
T1 sequence: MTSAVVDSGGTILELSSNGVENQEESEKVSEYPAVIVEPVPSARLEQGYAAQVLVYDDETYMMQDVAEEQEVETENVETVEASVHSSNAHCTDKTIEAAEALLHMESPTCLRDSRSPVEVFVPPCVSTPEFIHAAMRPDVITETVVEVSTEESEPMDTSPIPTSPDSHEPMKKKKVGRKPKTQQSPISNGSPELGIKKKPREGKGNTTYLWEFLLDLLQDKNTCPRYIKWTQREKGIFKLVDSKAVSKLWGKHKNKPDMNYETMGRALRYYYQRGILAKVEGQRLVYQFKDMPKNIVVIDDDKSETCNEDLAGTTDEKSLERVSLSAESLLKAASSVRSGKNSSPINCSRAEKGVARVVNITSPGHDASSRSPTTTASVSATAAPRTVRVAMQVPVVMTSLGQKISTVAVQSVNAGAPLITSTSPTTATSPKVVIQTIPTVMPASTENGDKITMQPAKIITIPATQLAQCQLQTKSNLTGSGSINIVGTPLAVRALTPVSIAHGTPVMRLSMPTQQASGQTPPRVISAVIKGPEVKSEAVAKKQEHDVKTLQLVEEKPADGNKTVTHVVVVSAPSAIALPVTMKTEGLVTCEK
The test is described as above. The note with it: 10 mM Tris-HCl pH 7.5, 50 mM NaCl, 1 mM DTT, 4% glycerol, room temperature, 30 min; GST-TFs on glutathione beads, 16-mer random dsDNA library, 0.1% …; high values mean tight binding; double strand, one strand shown; scale: fold enrichment (6-mer frequency, TF over GST control).
Regarding GCATCG, the binding signal came out at 0.765.
Still for that read-out and setting: next, AGTGGG: 0.606.
The same measure, in the same setting: next, TACCAG: 0.847; CGTTAG: 0.778.
The same measure, in the same setting: next, CGTGAA: 0.442; GCATGC: 0.836; CAGGCA: 0.721.
TGAGTT registered a binding signal of 0.395.
The same measure, in the same setting: as for TGTCGA, the figure is 0.8; as for GGACGC, 0.401.
Still for that read-out and setting: next, CAAGTG: 0.715; ACGTCG: 0.601.
Same read-out and setting: next, GAATCG: 0.604.
AGTAGG: the binding signal was 0.724.
Same read-out and setting: next, TCAGGC: 0.71.
The same measure, in the same setting: as for GGAGTA, the figure is 0.357.
Same read-out and setting: next, GGTGTG: 0.661; AGGTTG: 0.75.
On to GAGGCG, for which the binding signal turned out to be 0.401.
The same measure, in the same setting: as for AGAGGC, the figure is 0.7.
On the same count and under the same terms, next, CAGACC: 0.773.
Same read-out and setting: next, AGACTA: 0.751; GACAAT: 0.902; CCAGTT: 0.615.
As for CAGGGT, the binding signal is 0.79.
The sequence GTGCGT showed a binding signal of 0.592.
The same measure, in the same setting: as for GAGGAC, the figure is 0.59; as for TCGCCA, 0.915.
On the same count and under the same terms, as for CGGTCG, the figure is 0.397; as for GGGACA, 0.631.
Consider AGGGAC, for which the binding signal was determined as 0.727.
For GCGGAG, the binding signal worked out at 0.249.
For the sequence GCAGAG, the binding signal amounted to 0.636.
Consider AGCGCA, for which the binding signal was 0.926.
For the sequence GGTTGA, the binding signal was 0.726.
For the sequence TGAGGA, the binding signal was determined as 0.71.
TATCGG: the binding signal came out at 0.832.
The same measure, in the same setting: as for AGTCGG, the figure is 0.157.
